# Measurements from article PMC5762535, “Novel indazole-based small compounds enhance TRAIL-induced apoptosis by inhibiting the MKK7-TIPRL interaction in hepatocellular carcinoma” (Oncotarget, 2017).
# The chains behind the UniProt entries cited, without tags or fusion partners.
# UniProt O14733: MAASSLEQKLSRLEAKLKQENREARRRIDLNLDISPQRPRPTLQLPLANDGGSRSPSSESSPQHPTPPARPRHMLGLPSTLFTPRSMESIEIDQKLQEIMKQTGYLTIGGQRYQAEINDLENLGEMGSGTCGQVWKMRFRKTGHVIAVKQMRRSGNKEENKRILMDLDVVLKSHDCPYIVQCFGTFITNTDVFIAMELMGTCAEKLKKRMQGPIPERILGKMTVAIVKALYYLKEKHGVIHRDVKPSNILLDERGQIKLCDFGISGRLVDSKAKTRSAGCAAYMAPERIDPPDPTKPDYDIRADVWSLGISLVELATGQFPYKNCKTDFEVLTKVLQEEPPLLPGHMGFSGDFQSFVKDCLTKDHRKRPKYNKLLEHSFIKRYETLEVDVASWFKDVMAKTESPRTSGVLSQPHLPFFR
# Results are given in words; binding and its absence hold for the method and conditions named. For some assays here: Binding seen in cells or lysates may run through a third protein. Some entries that bind do so weakly or less than the wild type. Where a sequence is shown, tags or fusion partners need not be part of it.
# Legend:
# [1] = biological target: GST-tagged mitogen-activated protein kinase kinase 7 (MKK7) (human) (UniProt O14733); assay: ELISA; 96-well plates coated with GST-MKK7 in PBS-T (PBS, 0.05% Tween-20, 0.5% BSA); TIPRL-HRP in PBS-T added for 1 h; TMB, absorbance at 450 nm; used to screen small compounds at 10 uM; both purified
# [2] = biological target: GST-tagged mitogen-activated protein kinase kinase 7 (MKK7) (human) (UniProt O14733); assay: pull-down; 293T cells co-transfected with GST-MKK7 and HA-TIPRL for 24 h, then treated or not with TRT-0029 (10 uM) or TRT-0173 (20 uM) and/or TRAIL for 24 h; RIPA lysate on Glutathione Sepharose 4B; Western blot
binding [1],binding [2],Binder
binds,–,"His-tagged TOR signaling pathway regulator-like protein (TIPRL) conjugated with horseradish peroxidase (protein, UniProt O75663 1-272, conjugated with horseradish peroxidase (HRP)) MMIHGFQSSHRDFCFGPWKLTASKTHIMKSADVEKLADELHMPSLPEMMFGDNVLRIQHGSGFGIEFNATDALRCVNNYQGMLKVACAEEWQESRTEGEHSKEVIKPYDWTYTTDYKGTLLGESLKLKVVPTTDHIDTEKLKAREQIKFFEEVLLFEDELHDHGVSSLSVKIRVMPSSFFLLLRFFLRIDGVLIRMNDTRLYHEADKTYMLREYTSRESKISSLMHVPPSLFTEPNEISQYLPIKEAVCEKLIFPERIDPNPADSQKSTQVE"
–,binds,"HA-tagged TOR signaling pathway regulator-like protein (TIPRL) (protein, UniProt O75663 1-272) MMIHGFQSSHRDFCFGPWKLTASKTHIMKSADVEKLADELHMPSLPEMMFGDNVLRIQHGSGFGIEFNATDALRCVNNYQGMLKVACAEEWQESRTEGEHSKEVIKPYDWTYTTDYKGTLLGESLKLKVVPTTDHIDTEKLKAREQIKFFEEVLLFEDELHDHGVSSLSVKIRVMPSSFFLLLRFFLRIDGVLIRMNDTRLYHEADKTYMLREYTSRESKISSLMHVPPSLFTEPNEISQYLPIKEAVCEKLIFPERIDPNPADSQKSTQVE"
